Test results from publication PMC7617965, “Interaction with AK2A links AIFM1 to cellular energy metabolism” (Molecular cell, 2025).
No constants are given. Whether binding was seen depends on the method and setting. In cells and extracts the contact can be indirect. These calls come from enrichment with a bait or labelling near it, and not all partners need be listed.

Tests used:
AIFM1-HA (human) [1] = molecular target: AIFM1-HA (human) (UniProt O95831); experiment: affinity purification with mass spectrometry; IP of HA from AIFM1 KO cells inducibly and stably expressing AIFM1-HA or SMAC-MTS-AIFM1(103-613)-HA; the two interactomes compared
[2] = molecular target: SMAC^MTS-AIFM1^(103–613)-HA (human) (UniProt O95831); experiment: as above
AIFM1-HA (human) [3] = molecular target: AIFM1-HA (human) (UniProt O95831); experiment: affinity purification with mass spectrometry + peptide or protein array; integration of the three datasets (label-free and SILAC co-IP of AIFM1-HA from HEK293, protein microarray with purified AIFM1); which of them found the hit is not told

binding (AIFM1-HA (human) [1]): binds
binding [2]: binds
binding (AIFM1-HA (human) [3]): binds
B1: MIA40, endogenous (protein, UniProt Q8N4Q1 1-142)
chain: MSYCRQEGKDRIIFVTKEDHETPSSAELVADDPNDPYEEHGLILPNGNINWNCPCLGGMASGPCGEQFKSAFSCFHYSTEEIKGSDCVDQFRAMQECMQKYPDLYPQEDEDEEEEREKKPAEQAEETAPIEATATKEEEGSS
